# Many values rest on one well or one pass, so single values are uncertain.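 All cells are established human bladder cancer lines, one of them grown from a patient-derived xenograft. Viability was read by a luminescent ATP assay as percent inhibition versus vehicle over a seven-point dilution series; the paper calls scores above 59 very active, 30–59 active, 21–29 semi-active, 9–20 low active and below 9 inactive.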
# What was measured:
# Test in all cases: drug sensitivity score DSS3 (score 0-100); higher = more sensitive; extreme values may be limits of the assay
# Conditions in all cases: culture: 3D, ultra-low attachment; treatment time: 5 days
# [1] = system: 5637
# [2] = system: BC8149
# [3] = system: J82
# [4] = system: SW780
# [5] = system: T-24
# [6] = system: TCCSUP
# [7] = system: UM-UC-12
# [8] = system: UM-UC-14
# [9] = system: UM-UC-15
# [10] = system: UM-UC-17
# [11] = system: UM-UC-18
# [12] = system: UM-UC-1
# [13] = system: UM-UC-3
# [14] = system: UM-UC-5
# [15] = system: UM-UC-6
# [16] = system: UM-UC-9
smiles,measurement,setting,value
CO[C@@H](C(=O)N1Cc2[nH]nc(NC(=O)c3ccc(N4CCN(C)CC4)cc3)c2C1)c1ccccc1 (max dose 10000 nM),drug sensitivity score DSS3,[1],50.5
same,drug sensitivity score DSS3,[2],7.8
same,drug sensitivity score DSS3,[3],0
same,drug sensitivity score DSS3,[4],0.384
same,drug sensitivity score DSS3,[5],0.557
same,drug sensitivity score DSS3,[6],59.8
same,drug sensitivity score DSS3,[7],3.96
same,drug sensitivity score DSS3,[8],15.7
same,drug sensitivity score DSS3,[9],1.42
same,drug sensitivity score DSS3,[10],4
same,drug sensitivity score DSS3,[11],0
same,drug sensitivity score DSS3,[12],14.9
same,drug sensitivity score DSS3,[13],0.44
same,drug sensitivity score DSS3,[14],0
same,drug sensitivity score DSS3,[15],15.4
same,drug sensitivity score DSS3,[16],0
C[C@@H](Oc1cc(-n2cnc3ccc(CN4CCN(C)CC4)cc32)sc1C(N)=O)c1ccccc1C(F)(F)F (max dose 10000 nM),drug sensitivity score DSS3,[1],40.5
same,drug sensitivity score DSS3,[2],30.6
same,drug sensitivity score DSS3,[3],7.64
same,drug sensitivity score DSS3,[4],51.8
same,drug sensitivity score DSS3,[5],2.73
same,drug sensitivity score DSS3,[6],73.1
same,drug sensitivity score DSS3,[7],36.1
same,drug sensitivity score DSS3,[8],40.1
same,drug sensitivity score DSS3,[9],10.1
same,drug sensitivity score DSS3,[10],71.1
same,drug sensitivity score DSS3,[11],42.1
same,drug sensitivity score DSS3,[12],37.4
same,drug sensitivity score DSS3,[13],38.2
same,drug sensitivity score DSS3,[14],3.91
same,drug sensitivity score DSS3,[15],50.2
same,drug sensitivity score DSS3,[16],47.9
C[C@@H]1COCCN1c1cc(-c2ccnn2C)c2ccnc(-c3ccn[nH]3)c2n1 (max dose 10000 nM),drug sensitivity score DSS3,[1],43
same,drug sensitivity score DSS3,[2],22.2
same,drug sensitivity score DSS3,[3],5.39
same,drug sensitivity score DSS3,[4],3.95
same,drug sensitivity score DSS3,[5],0
same,drug sensitivity score DSS3,[6],58.4
same,drug sensitivity score DSS3,[7],1.53
same,drug sensitivity score DSS3,[8],28.2
same,drug sensitivity score DSS3,[9],0
same,drug sensitivity score DSS3,[10],30
same,drug sensitivity score DSS3,[11],32.9
same,drug sensitivity score DSS3,[12],37.5
same,drug sensitivity score DSS3,[13],8.15
same,drug sensitivity score DSS3,[14],0
same,drug sensitivity score DSS3,[15],45.5
same,drug sensitivity score DSS3,[16],9.28
Cc1ccc(C(=O)N(CCCN)[C@@H](c2nc3cc(Cl)ccc3c(=O)n2Cc2ccccc2)C(C)C)cc1 (max dose 10000 nM),drug sensitivity score DSS3,[1],70.3
same,drug sensitivity score DSS3,[2],20.6
same,drug sensitivity score DSS3,[3],0
same,drug sensitivity score DSS3,[4],6.69
same,drug sensitivity score DSS3,[5],1.78
same,drug sensitivity score DSS3,[6],65.8
same,drug sensitivity score DSS3,[7],43.2
same,drug sensitivity score DSS3,[8],44
same,drug sensitivity score DSS3,[9],0
same,drug sensitivity score DSS3,[10],62.1
same,drug sensitivity score DSS3,[11],31.1
same,drug sensitivity score DSS3,[12],46.7
same,drug sensitivity score DSS3,[13],29.6
same,drug sensitivity score DSS3,[15],21.5
same,drug sensitivity score DSS3,[16],0
CNC(=O)c1ccccc1Sc1ccc2c(/C=C/c3ccccn3)n[nH]c2c1 [Axitinib] (max dose 10000 nM),drug sensitivity score DSS3,[1],2.69
same,drug sensitivity score DSS3,[2],0
same,drug sensitivity score DSS3,[4],0
same,drug sensitivity score DSS3,[5],0.0226
same,drug sensitivity score DSS3,[6],8.87
same,drug sensitivity score DSS3,[8],0.955
same,drug sensitivity score DSS3,[9],0
same,drug sensitivity score DSS3,[10],0
same,drug sensitivity score DSS3,[11],0.00454
same,drug sensitivity score DSS3,[12],2.1
same,drug sensitivity score DSS3,[13],0
same,drug sensitivity score DSS3,[14],0
same,drug sensitivity score DSS3,[15],2.12
same,drug sensitivity score DSS3,[16],0
O=C(NCCCNc1nc(Nc2cccc(NC(=O)N3CCCC3)c2)ncc1I)c1cccs1 [BX-795] (max dose 10000 nM),drug sensitivity score DSS3,[1],0.513
same,drug sensitivity score DSS3,[2],0.127
same,drug sensitivity score DSS3,[3],0
same,drug sensitivity score DSS3,[4],0
same,drug sensitivity score DSS3,[5],0
same,drug sensitivity score DSS3,[6],0.105
same,drug sensitivity score DSS3,[7],0
same,drug sensitivity score DSS3,[8],0.0555
same,drug sensitivity score DSS3,[9],0
same,drug sensitivity score DSS3,[10],0.109
same,drug sensitivity score DSS3,[11],0.125
same,drug sensitivity score DSS3,[13],1.43
same,drug sensitivity score DSS3,[14],0.376
same,drug sensitivity score DSS3,[15],0
same,drug sensitivity score DSS3,[16],0
c1cn2cc(-c3ccc4cn[nH]c4c3)nc(Nc3ccc(N4CCOCC4)cc3)c2n1 [Entospletinib (GS-9973)] (max dose 10000 nM),drug sensitivity score DSS3,[1],0.655
same,drug sensitivity score DSS3,[2],0
same,drug sensitivity score DSS3,[4],0
same,drug sensitivity score DSS3,[5],30.4
same,drug sensitivity score DSS3,[6],6.3
same,drug sensitivity score DSS3,[7],0
same,drug sensitivity score DSS3,[8],1.35
same,drug sensitivity score DSS3,[9],0
same,drug sensitivity score DSS3,[10],0.16
same,drug sensitivity score DSS3,[11],0
same,drug sensitivity score DSS3,[13],0
same,drug sensitivity score DSS3,[14],0.795
same,drug sensitivity score DSS3,[16],0
CCNC(=O)Nc1ccc(-c2nc3c(c(N4CCOC[C@@H]4C)n2)CCN(C2COC2)C3)cc1 [GDC-0349] (max dose 10000 nM),drug sensitivity score DSS3,[2],30.6
same,drug sensitivity score DSS3,[3],1.54
same,drug sensitivity score DSS3,[4],6.36
same,drug sensitivity score DSS3,[5],0
same,drug sensitivity score DSS3,[6],29.2
same,drug sensitivity score DSS3,[8],5.33
same,drug sensitivity score DSS3,[9],0.526
same,drug sensitivity score DSS3,[10],0
same,drug sensitivity score DSS3,[11],19.9
same,drug sensitivity score DSS3,[12],10.2
same,drug sensitivity score DSS3,[13],7.1
same,drug sensitivity score DSS3,[14],11.7
same,drug sensitivity score DSS3,[15],5.71
same,drug sensitivity score DSS3,[16],8.09
CC(C)n1c([C@H](C)Nc2ncnc(N)c2C#N)cc2cccc(-c3ccc(=O)n(C)c3)c2c1=O [IPI-3063] (max dose 10000 nM),drug sensitivity score DSS3,[1],26.5
same,drug sensitivity score DSS3,[2],33.3
same,drug sensitivity score DSS3,[3],17.6
same,drug sensitivity score DSS3,[4],14
same,drug sensitivity score DSS3,[5],0
same,drug sensitivity score DSS3,[6],15.9
same,drug sensitivity score DSS3,[8],3.6
same,drug sensitivity score DSS3,[9],0
same,drug sensitivity score DSS3,[10],14.1
same,drug sensitivity score DSS3,[12],22.1
same,drug sensitivity score DSS3,[13],28
same,drug sensitivity score DSS3,[14],8.31
same,drug sensitivity score DSS3,[15],19.8
same,drug sensitivity score DSS3,[16],4.64
O=C1Nc2ccccc2/C1=C1/Nc2ccccc2C1=O [Indirubin] (max dose 10000 nM),drug sensitivity score DSS3,[1],0
same,drug sensitivity score DSS3,[2],20
same,drug sensitivity score DSS3,[3],0
same,drug sensitivity score DSS3,[4],0
same,drug sensitivity score DSS3,[5],0
same,drug sensitivity score DSS3,[6],0
same,drug sensitivity score DSS3,[7],0
same,drug sensitivity score DSS3,[8],0
same,drug sensitivity score DSS3,[9],0
same,drug sensitivity score DSS3,[10],2.71
same,drug sensitivity score DSS3,[11],6.38
same,drug sensitivity score DSS3,[13],0
same,drug sensitivity score DSS3,[14],0
same,drug sensitivity score DSS3,[15],1.13
same,drug sensitivity score DSS3,[16],0
C=CCc1cccc(/C=N/NC(=O)CN2CCN(Cc3ccccc3)CC2)c1O [PAC-1] (max dose 10000 nM),drug sensitivity score DSS3,[1],0.546
same,drug sensitivity score DSS3,[2],2.2
same,drug sensitivity score DSS3,[3],0
same,drug sensitivity score DSS3,[4],0.0304
same,drug sensitivity score DSS3,[5],1.44
same,drug sensitivity score DSS3,[7],1.72
same,drug sensitivity score DSS3,[8],0
same,drug sensitivity score DSS3,[9],0
same,drug sensitivity score DSS3,[10],0
same,drug sensitivity score DSS3,[11],0
same,drug sensitivity score DSS3,[12],0
same,drug sensitivity score DSS3,[13],4.15
same,drug sensitivity score DSS3,[14],1.25
same,drug sensitivity score DSS3,[15],0
same,drug sensitivity score DSS3,[16],0.361
CNC(=O)c1cc(COc2nnc(Nc3ccc(Cl)cc3)c3ccoc23)ccn1 [Telatinib] (max dose 10000 nM),drug sensitivity score DSS3,[1],8.65
same,drug sensitivity score DSS3,[2],4.48
same,drug sensitivity score DSS3,[4],0
same,drug sensitivity score DSS3,[5],0
same,drug sensitivity score DSS3,[6],4.27
same,drug sensitivity score DSS3,[7],1.13
same,drug sensitivity score DSS3,[8],0
same,drug sensitivity score DSS3,[9],0.111
same,drug sensitivity score DSS3,[10],1.5
same,drug sensitivity score DSS3,[11],5.13
same,drug sensitivity score DSS3,[12],0.106
same,drug sensitivity score DSS3,[13],21.7
same,drug sensitivity score DSS3,[14],2.84
same,drug sensitivity score DSS3,[15],1.38
same,drug sensitivity score DSS3,[16],0

# Exported with bars between the fields: part of the list above.
smiles | measurement | setting | value
O=C(NCCCNc1nc(Nc2cccc(NC(=O)N3CCCC3)c2)ncc1I)c1cccs1 [BX-795] (max dose 10000 nM) | drug sensitivity score DSS3 | [3] | 0
c1cn2cc(-c3ccc4cn[nH]c4c3)nc(Nc3ccc(N4CCOCC4)cc3)c2n1 [Entospletinib (GS-9973)] (max dose 10000 nM) | drug sensitivity score DSS3 | [4] | 0
CCNC(=O)Nc1ccc(-c2nc3c(c(N4CCOC[C@@H]4C)n2)CCN(C2COC2)C3)cc1 [GDC-0349] (max dose 10000 nM) | drug sensitivity score DSS3 | [5] | 0
CC(C)n1c([C@H](C)Nc2ncnc(N)c2C#N)cc2cccc(-c3ccc(=O)n(C)c3)c2c1=O [IPI-3063] (max dose 10000 nM) | drug sensitivity score DSS3 | [1] | 26.5
O=C1Nc2ccccc2/C1=C1/Nc2ccccc2C1=O [Indirubin] (max dose 10000 nM) | drug sensitivity score DSS3 | [7] | 0
C=CCc1cccc(/C=N/NC(=O)CN2CCN(Cc3ccccc3)CC2)c1O [PAC-1] (max dose 10000 nM) | drug sensitivity score DSS3 | [1] | 0.546

# Reference: the supplement of paper PMC7646827
